Several values for one entry are separate records, joined by “and”; a condition that tells them apart may be missing. Equal values may be shown once.
Tested on: patients with obstructive sleep apnea
Assay: Table 1 summary of efficacy and side effects in sleep apnea, compared with acetazolamide, topiramate and zonisamide data
Assay type: in vivo, human
Settings: efficacy rating divided by side effect total rating
Text: The results from Example 1 and 2 are summarized in table 1, below, where the results are further compared with data reflecting the effect of acetazolamide, topiramate and zonisamide in sleep apnea.

Row | Compound | Efficacy/side effect ratio
1 | CC(=O)Nc1nnc(S(N)(=O)=O)s1 [Acetazolamide] | 1/2.7 = 0.38 and 2/2.7 = 0.74
2 | CC1(C)O[C@@H]2[C@@H](CO[C@@]3(COS(N)(=O)=O)OC(C)(C)O[C@@H]23)O1 [Topiramate] | 1/3.7 = 0.27
3 | NS(=O)(=O)Cc1noc2ccccc12 [Zonisamide] | 1/3.3 = 0.30

— patent US10617694B2 (priority 2016, dated 2020)
